Measured values published in the supplement of paper PMC12819154, “High-throughput peptide-centric local stability assay extends protein–ligand identification to membrane proteins, tissues and bacteria” (Nature Structural & Molecular Biology, 2025).
The other results are listed elsewhere or left out. Most entries show no effect beyond the scatter of the controls.

The chains behind the UniProt entries cited, without tags or fusion partners. Where a name states a change or a piece, a line headed by the entry shows the natural chain unless it says otherwise.
UniProt O08692: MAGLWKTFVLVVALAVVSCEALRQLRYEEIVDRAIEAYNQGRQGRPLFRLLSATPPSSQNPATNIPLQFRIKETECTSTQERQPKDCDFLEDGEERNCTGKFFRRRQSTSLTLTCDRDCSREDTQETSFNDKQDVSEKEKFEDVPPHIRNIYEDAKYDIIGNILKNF
UniProt O08983: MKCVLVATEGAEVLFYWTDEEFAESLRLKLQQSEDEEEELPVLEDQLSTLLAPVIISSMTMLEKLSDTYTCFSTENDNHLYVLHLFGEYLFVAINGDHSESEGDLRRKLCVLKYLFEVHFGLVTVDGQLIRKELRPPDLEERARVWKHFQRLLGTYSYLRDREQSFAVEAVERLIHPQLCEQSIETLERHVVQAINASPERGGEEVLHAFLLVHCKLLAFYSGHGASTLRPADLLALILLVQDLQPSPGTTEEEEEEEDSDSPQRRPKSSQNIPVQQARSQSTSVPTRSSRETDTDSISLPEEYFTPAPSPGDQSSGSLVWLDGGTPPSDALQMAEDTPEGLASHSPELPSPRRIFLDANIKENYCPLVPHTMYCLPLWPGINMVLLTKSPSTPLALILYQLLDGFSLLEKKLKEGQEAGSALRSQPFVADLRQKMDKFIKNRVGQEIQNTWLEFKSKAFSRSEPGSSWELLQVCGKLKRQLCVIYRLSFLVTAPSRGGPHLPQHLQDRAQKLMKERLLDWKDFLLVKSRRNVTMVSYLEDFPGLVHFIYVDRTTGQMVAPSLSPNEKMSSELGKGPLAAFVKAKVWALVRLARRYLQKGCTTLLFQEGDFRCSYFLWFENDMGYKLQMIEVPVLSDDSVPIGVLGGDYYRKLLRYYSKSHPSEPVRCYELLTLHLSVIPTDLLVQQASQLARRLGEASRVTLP
UniProt G5E8B9: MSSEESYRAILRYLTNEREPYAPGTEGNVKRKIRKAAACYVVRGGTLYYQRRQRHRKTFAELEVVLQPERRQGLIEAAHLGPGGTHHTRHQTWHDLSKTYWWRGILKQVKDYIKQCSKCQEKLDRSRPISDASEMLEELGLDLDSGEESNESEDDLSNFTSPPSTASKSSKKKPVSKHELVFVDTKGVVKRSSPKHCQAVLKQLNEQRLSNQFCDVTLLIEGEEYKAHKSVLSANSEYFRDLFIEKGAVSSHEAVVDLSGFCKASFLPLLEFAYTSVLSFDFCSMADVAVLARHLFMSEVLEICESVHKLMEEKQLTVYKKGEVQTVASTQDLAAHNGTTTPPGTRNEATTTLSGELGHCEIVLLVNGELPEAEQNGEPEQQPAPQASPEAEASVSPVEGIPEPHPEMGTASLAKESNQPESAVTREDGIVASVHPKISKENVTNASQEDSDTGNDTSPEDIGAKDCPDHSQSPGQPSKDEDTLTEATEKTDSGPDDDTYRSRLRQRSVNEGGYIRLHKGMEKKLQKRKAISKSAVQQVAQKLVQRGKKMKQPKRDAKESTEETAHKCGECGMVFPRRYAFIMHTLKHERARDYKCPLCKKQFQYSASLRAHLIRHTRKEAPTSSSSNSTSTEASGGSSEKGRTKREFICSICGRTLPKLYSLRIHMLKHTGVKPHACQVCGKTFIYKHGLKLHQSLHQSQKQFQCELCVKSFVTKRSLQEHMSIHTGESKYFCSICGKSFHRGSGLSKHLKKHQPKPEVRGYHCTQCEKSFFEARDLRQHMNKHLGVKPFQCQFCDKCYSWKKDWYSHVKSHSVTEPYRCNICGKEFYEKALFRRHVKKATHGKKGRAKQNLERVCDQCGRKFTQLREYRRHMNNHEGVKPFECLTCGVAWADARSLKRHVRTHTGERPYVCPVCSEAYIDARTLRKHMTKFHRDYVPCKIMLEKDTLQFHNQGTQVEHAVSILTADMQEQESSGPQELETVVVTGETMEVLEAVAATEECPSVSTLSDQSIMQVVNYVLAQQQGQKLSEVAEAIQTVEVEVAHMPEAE
UniProt G5E8Q8: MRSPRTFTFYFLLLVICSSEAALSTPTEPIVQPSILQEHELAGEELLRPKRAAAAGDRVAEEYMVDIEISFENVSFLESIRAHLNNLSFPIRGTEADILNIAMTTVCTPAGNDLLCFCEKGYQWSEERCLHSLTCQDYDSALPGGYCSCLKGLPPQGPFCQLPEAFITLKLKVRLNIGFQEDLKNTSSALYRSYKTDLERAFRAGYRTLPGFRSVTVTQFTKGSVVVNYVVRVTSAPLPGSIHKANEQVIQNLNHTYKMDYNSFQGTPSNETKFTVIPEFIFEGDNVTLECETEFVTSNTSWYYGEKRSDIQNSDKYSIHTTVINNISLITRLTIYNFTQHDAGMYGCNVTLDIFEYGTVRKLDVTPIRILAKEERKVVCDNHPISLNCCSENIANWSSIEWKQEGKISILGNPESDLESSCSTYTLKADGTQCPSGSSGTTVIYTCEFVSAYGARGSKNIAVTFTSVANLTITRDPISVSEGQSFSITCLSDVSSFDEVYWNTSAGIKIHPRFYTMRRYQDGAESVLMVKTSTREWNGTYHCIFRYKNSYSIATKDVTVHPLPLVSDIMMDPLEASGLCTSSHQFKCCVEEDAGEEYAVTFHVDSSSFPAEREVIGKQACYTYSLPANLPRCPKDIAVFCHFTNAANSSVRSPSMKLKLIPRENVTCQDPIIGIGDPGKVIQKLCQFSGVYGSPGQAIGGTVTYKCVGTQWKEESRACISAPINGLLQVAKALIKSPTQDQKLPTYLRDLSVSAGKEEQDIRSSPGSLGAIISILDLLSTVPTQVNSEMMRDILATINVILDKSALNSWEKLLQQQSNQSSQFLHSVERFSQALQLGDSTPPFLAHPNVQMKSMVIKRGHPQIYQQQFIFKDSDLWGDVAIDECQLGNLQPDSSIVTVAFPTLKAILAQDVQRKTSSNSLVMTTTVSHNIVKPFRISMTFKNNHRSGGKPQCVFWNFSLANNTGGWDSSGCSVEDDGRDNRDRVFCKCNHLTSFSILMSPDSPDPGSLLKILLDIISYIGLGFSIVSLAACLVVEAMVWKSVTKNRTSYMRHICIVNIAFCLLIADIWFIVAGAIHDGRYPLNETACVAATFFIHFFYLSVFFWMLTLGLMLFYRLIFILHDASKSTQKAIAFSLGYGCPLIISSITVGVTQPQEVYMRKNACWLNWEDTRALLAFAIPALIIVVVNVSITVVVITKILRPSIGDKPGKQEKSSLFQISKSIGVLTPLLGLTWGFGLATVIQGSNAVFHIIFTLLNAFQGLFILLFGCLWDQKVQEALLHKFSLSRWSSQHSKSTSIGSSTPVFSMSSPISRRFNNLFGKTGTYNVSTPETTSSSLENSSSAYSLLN
UniProt O35381: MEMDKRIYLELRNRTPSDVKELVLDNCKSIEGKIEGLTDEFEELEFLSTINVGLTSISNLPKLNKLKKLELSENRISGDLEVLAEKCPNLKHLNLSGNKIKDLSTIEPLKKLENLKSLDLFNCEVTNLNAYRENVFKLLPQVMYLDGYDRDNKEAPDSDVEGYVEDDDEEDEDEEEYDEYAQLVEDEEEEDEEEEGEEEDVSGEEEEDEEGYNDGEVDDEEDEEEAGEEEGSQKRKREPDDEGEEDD
UniProt F6XZJ7: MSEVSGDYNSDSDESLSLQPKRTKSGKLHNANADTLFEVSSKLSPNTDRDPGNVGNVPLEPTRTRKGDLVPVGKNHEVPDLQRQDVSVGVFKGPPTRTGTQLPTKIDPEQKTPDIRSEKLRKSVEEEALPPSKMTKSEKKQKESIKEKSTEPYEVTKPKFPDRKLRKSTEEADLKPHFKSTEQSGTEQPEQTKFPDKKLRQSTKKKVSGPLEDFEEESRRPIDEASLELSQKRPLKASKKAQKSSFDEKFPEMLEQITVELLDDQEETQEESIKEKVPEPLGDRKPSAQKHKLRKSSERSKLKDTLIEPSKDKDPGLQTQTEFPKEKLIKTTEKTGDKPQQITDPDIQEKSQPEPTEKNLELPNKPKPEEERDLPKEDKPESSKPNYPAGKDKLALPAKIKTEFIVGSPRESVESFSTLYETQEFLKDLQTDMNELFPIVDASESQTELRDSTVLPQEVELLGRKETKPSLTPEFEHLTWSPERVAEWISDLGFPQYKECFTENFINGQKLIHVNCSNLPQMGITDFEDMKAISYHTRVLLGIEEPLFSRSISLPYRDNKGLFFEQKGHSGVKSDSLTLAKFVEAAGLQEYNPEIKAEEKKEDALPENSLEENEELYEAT
UniProt B2RX14: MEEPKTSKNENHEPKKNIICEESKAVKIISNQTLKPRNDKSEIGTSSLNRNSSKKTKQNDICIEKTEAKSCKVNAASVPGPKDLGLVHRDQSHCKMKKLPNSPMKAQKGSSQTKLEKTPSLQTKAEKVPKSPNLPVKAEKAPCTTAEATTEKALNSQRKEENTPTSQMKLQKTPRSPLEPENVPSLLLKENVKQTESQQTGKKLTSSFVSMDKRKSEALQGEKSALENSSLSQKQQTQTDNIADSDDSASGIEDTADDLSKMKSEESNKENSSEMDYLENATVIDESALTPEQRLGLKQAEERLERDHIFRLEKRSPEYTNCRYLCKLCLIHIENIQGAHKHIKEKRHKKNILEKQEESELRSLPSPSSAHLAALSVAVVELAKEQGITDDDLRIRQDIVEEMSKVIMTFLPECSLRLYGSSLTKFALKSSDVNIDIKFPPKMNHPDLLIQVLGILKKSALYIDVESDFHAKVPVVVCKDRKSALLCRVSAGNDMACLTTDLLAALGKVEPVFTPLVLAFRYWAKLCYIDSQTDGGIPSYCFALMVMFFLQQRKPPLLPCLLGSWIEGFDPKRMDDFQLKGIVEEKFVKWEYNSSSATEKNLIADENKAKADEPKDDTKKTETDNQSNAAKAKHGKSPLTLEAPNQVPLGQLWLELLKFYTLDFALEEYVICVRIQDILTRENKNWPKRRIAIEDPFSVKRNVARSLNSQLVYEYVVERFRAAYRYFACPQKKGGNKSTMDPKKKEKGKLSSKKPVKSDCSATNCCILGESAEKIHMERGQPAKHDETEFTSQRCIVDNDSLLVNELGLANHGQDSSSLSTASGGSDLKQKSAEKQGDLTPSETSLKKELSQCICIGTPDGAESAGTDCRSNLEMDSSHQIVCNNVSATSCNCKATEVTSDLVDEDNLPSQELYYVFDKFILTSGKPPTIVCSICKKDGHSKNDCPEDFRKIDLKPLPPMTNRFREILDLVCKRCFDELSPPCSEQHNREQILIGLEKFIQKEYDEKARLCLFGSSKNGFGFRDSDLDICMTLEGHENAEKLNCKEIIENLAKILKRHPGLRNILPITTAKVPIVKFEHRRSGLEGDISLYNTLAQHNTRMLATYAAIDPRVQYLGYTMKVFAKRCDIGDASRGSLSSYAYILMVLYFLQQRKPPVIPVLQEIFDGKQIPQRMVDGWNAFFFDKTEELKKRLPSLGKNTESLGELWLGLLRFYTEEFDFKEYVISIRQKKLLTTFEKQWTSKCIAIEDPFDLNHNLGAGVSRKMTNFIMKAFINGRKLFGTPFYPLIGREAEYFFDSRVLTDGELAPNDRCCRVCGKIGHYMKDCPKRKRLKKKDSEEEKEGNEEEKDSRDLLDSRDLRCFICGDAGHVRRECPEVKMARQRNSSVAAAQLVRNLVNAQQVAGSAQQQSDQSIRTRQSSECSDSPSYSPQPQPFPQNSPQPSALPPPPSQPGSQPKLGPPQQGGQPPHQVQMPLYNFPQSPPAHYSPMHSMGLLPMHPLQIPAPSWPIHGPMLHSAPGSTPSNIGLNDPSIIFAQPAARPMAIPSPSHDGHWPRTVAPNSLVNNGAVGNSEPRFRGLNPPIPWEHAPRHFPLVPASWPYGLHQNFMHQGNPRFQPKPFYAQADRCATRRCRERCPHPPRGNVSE
UniProt O35450: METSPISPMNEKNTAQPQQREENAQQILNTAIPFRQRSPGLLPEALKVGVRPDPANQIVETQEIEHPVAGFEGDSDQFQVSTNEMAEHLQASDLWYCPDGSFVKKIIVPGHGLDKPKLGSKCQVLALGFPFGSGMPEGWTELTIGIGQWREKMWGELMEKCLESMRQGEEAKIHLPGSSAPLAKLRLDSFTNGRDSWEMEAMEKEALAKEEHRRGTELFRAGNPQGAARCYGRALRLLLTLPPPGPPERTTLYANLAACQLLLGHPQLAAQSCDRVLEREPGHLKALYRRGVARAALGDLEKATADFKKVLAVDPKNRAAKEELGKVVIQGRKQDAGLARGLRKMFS
UniProt O35149: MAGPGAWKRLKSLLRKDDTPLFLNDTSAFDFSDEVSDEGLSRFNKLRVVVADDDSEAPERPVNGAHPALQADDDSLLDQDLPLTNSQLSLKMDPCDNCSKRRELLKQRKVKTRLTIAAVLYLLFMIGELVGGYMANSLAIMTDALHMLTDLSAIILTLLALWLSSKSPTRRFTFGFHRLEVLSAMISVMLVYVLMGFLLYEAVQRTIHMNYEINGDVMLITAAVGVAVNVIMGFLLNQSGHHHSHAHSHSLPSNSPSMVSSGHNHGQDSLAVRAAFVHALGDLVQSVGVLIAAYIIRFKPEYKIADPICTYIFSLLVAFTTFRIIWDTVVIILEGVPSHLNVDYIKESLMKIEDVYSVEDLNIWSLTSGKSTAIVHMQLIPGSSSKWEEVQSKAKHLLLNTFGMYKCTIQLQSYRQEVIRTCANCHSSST

compound: CN[C@@H]1C[C@H]2O[C@@](C)([C@@H]1OC)n1c3ccccc3c3c4c(c5c6ccccc6n2c5c31)C(=O)NC4 [staurosporine]; assay: log2 fold change of tryptic peptide abundance, ligand vs vehicle (limited proteolysis) (log2 ratio); higher = more trypsin-susceptible (destabilized); conditions: ligand concentration: 20 uM; sample: mouse liver crude lysate; replicate design: treated separately

Row | Target | log2 fold change
1 | UniProt O09167 (peptide sequence: RVKENDQK, peptide start residue: 108) | -0.634
2 | UniProt B2RWS6 (peptide sequence: LIQQQLVLLLHAHK, peptide start residue: 338) | -0.226
3 | UniProt E9PZM4 (peptide sequence: FTEFDAR, peptide start residue: 1540) | 0.307
4 | UniProt G5E8V9 (peptide sequence: QLGDAFADLSLK, peptide start residue: 195) | -0.207
5 | UniProt O09158 (peptide sequence: NRVDFLQLMMNTQNSK, peptide start residue: 267) | 0.27
6 | UniProt O08692 (peptide sequence: AIEAYNQGR, peptide start residue: 34) | -0.211
7 | UniProt O08983 (peptide sequence: SQPFVADLR, peptide start residue: 425) | -0.0407
8 | UniProt B7ZMP1 (peptide sequence: ELWDGPR, peptide start residue: 161) | -0.206
9 | UniProt E9Q1P8 (peptide sequence: FKKEPALTAAGR, peptide start residue: 307) | 0.239
10 | UniProt O35344 (peptide sequence: SGILPILVK, peptide start residue: 113) | -0.144
11 | UniProt D3Z6Q9 (peptide sequence: GQTGKDTPSPGDVVLR, peptide start residue: 372) | -0.233
12 | UniProt E9Q912 (peptide sequence: SVAQQASLTEQR, peptide start residue: 591) | 0.178
13 | UniProt O09012 (peptide sequence: YNLGISCINLGAHR, peptide start residue: 560) | -0.14
14 | UniProt O08582 (peptide sequence: GGQTASFALK, peptide start residue: 457) | 0.34
15 | UniProt D3Z7Q2 (peptide sequence: LEEYQKEQAVNR, peptide start residue: 35) | -0.144
16 | UniProt G5E8B9 (peptide sequence: CGECGMVFPR, peptide start residue: 568) | 0.212
17 | UniProt G5E8Q8 (peptide sequence: SALNSWEK, peptide start residue: 805) | 0.188
18 | UniProt F8VPZ5 (peptide sequence: QQCLGAASGVPTWTGHR, peptide start residue: 1293) | 0.313

Two records drawn at random from those above, as already listed:
Row | Target | log2 fold change
16 | UniProt G5E8B9 (peptide sequence: CGECGMVFPR, peptide start residue: 568) | 0.212
14 | UniProt O08582 (peptide sequence: GGQTASFALK, peptide start residue: 457) | 0.34

Remaining list, next part.

Row | Target | log2 fold change
19 | UniProt O35381 (peptide sequence: IKDLSTIEPLK, peptide start residue: 100) | 0.158
20 | UniProt F6XZJ7 (peptide sequence: PKPEEERDLPK, peptide start residue: 366) | 0.311
21 | UniProt E9Q137 (peptide sequence: ELSTPERGEE, peptide start residue: 300) | 0.158
22 | UniProt O08550 (peptide sequence: VLSLGPAPEPPKPATSK, peptide start residue: 2170) | -0.325
23 | UniProt O35316 (peptide sequence: EGATPFHSR, peptide start residue: 593) | -0.204
24 | UniProt B2RX14 (peptide sequence: NILPITTAKVPIVK, peptide start residue: 1091) | 0.255
25 | UniProt O35450 (peptide sequence: KVLAVDPK, peptide start residue: 309) | -0.105
26 | UniProt G3X987 (peptide sequence: YLAFNNK, peptide start residue: 164) | -0.148
27 | UniProt E1U8D0 (peptide sequence: LQIGELSGK, peptide start residue: 338) | -0.322
28 | UniProt E9PYH6 (peptide sequence: RSENSYQDSFSR, peptide start residue: 300) | -0.451
29 | UniProt O08788 (peptide sequence: KLDSAAKDADER, peptide start residue: 979) | 0.855
30 | UniProt O35149 (peptide sequence: MDPCDNCSK, peptide start residue: 92) | 0.19
31 | UniProt O35127 (peptide sequence: DNACNDMGK, peptide start residue: 41) | -0.011
32 | UniProt F8VPQ2 (peptide sequence: ILGQQSPEKK, peptide start residue: 862) | 0.411
33 | UniProt O35245 (peptide sequence: HLPLEGQPPR, peptide start residue: 175) | 0.375
34 | UniProt D3Z338 (peptide sequence: LCLEFLAINYR, peptide start residue: 102) | 0.339
35 | UniProt D3YUB6 (peptide sequence: STLGDSVKR, peptide start residue: 1011) | 0.314
